The numbers were not newly measured in US20250229073A1, “TRANSIENT DISRUPTION OF THE NEUROVASCULAR BARRIER OF A HUMAN AND USES THEREOF FOR TREATING AMYOTROPHIC LATERAL SCLEROSIS” (SORBONNE UNIVERSITE, priority 2022, published 2025), which cites them from elsewhere.

Each structure is given as a SMILES string.

The conditions of this series: factor, ALS models vs wild type models; cited from earlier work.

In the case of `Nc1nc2ccc(OC(F)(F)F)cc2s1` [riluzole, 2-amino-6-trifluoromethoxybenzothiazole], the “brain distribution decrease in ALS models compared to wild type models” value was 1.7.
